A: 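Enzyme assay of the thioesterase domain of polyketide synthase 13; the read-out is not stated. Target: Polyketide synthase Pks13, Mycobacterium tuberculosis (UniProt I6X8D2). Compounds at 30 µM. Higher reads as stronger inhibition (inferred from which compounds were picked for retests). Size under these conditions: about 67,000 compounds, about 300 of them at 50% or above in at least one test.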
B: 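Enzyme assay of histidyl-tRNA synthetase; the read-out is not stated. Target: Histidine-tRNA ligase, Leishmania infantum (UniProt A4I591). Concentration: 30 µM. The record gives no direction; compounds that gave an IC50 in retests scored well above the rest, so higher reads as stronger inhibition. The assay is labelled LdHisRS but filed under L. infantum. About 69,000 compounds were tested under these conditions; 0.6% (about 410) showed 50% or more at least once.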
C: 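Coenzyme A biosynthesis protein CoaBC, Mycobacterium tuberculosis (UniProt P9WNZ1). Enzyme assay of CoaBC with a phosphate dye (Biomol Green) read at 650 nm. Tested at 30 µM. Direction is inferred from only a few compounds that gave an IC50; most scored high, so higher reads as stronger inhibition. Most strong results did not repeat in a second test. Size under these conditions: about 67,000 compounds, about 40 of them at 50% or above in at least one test.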

Protein sequences, listed by entry. Tags and fused reporters are not part of them. Residues count along the entry.
UniProt I6X8D2, whole entry: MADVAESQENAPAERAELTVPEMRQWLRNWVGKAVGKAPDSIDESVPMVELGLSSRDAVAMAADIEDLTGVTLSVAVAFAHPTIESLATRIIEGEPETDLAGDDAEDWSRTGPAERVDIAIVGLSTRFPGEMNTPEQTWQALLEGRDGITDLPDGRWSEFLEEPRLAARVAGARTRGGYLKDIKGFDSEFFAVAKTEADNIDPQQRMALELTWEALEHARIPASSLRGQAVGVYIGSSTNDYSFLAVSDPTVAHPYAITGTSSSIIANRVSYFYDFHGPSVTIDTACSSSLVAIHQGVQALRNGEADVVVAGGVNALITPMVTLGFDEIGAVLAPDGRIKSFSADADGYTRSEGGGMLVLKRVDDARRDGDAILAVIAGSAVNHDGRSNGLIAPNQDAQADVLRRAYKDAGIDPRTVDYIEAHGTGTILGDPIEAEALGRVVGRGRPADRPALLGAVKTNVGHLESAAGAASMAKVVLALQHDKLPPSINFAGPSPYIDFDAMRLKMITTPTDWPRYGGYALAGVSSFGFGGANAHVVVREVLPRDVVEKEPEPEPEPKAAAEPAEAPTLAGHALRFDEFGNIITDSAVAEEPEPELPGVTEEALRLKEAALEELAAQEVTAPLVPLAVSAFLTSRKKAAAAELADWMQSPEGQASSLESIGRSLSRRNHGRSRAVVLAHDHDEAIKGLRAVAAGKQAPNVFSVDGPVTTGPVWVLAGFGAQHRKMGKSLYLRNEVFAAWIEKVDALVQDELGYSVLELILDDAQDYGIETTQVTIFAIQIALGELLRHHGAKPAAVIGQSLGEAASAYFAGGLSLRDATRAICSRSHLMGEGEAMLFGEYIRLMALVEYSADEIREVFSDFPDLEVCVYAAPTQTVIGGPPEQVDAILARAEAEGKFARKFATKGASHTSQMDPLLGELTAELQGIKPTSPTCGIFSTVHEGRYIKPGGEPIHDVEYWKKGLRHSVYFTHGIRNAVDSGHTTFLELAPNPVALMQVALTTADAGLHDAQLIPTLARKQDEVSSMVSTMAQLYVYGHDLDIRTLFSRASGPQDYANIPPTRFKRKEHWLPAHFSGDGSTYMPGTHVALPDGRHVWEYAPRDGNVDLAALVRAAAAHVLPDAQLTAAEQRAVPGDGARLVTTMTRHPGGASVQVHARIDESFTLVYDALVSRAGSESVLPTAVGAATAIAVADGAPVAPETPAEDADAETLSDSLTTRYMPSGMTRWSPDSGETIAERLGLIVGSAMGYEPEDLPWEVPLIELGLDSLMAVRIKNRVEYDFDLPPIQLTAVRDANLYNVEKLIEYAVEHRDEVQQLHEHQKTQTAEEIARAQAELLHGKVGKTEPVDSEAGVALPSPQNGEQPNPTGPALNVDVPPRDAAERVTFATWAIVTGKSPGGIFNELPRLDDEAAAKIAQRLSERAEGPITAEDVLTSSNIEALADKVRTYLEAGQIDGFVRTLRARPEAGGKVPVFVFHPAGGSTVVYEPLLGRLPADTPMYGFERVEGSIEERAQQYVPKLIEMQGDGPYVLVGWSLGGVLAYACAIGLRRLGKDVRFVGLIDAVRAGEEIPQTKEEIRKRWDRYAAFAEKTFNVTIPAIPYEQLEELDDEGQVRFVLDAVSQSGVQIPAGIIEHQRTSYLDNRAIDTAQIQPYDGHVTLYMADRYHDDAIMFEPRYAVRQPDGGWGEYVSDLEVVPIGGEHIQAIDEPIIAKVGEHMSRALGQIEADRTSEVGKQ
UniProt A4I591, 1-473: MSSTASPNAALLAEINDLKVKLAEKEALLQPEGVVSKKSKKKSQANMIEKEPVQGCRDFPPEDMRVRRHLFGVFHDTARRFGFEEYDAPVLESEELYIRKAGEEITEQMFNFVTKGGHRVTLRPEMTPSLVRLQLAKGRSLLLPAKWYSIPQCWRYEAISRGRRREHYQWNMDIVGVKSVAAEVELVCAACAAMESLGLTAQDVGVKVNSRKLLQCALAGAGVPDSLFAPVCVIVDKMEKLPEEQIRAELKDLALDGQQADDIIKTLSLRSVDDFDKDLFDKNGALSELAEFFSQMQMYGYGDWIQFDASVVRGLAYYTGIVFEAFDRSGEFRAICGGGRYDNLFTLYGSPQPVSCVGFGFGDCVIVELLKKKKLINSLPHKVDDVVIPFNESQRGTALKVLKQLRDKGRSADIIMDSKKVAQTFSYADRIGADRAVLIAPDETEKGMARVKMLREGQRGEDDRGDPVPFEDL
UniProt P9WNZ1, whole entry: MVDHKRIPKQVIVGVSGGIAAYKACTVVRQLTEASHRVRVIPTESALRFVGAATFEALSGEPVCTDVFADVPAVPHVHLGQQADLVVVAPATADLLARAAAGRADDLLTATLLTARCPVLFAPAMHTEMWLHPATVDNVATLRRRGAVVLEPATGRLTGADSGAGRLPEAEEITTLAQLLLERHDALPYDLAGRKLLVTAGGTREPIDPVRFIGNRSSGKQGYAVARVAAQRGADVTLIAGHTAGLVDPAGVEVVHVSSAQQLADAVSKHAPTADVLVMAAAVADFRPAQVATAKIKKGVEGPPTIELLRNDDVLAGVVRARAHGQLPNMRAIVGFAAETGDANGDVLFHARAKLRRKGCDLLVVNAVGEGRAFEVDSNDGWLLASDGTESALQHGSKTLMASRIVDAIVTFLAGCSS

The filed quantity is “Percent Effect” (%).
The record does not define 0% and 100%; most values in the screen are far below 50% and negative numbers occur (in some assays of this library far below -100).
The compounds are a random part of those screened.

Result for CC(C)C(=O)Nc1cc(C(C)(C)C)nn1-c1ccccn1 was A: -10.67%; B: 13.43%; C: 4.418%. COc1ccccc1CN1C(=O)O[C@@H]2CN(c3nc(C)cnc3C)C[C@@H]21 read A: -35.48%; B: 6.667%; C: 9.636%. Result for CN(C)C(=O)N1CCN(Cc2ccccc2)[C@@H]2CS(=O)(=O)C[C@@H]21 was A: -7.638%; B: 25%; C: -7.036%. For Cc1nc(CNC2CCc3nc(C(C)C)nn3C2)oc1C (centres unmarked) the result was A: -8.604%; B: 6.349%; C: -1.739%.

CNC(=O)c1cccc(CC2COCCN(Cc3ccsc3)C2)n1 (centres unmarked) gave A: 7.928%; B: 22.7%; C: 0.6993%. For CCOCc1cccc(S(=O)(=O)Nc2ncc(C)s2)c1 the result was A: -9.395%; B: 7.865%; C: -20.05%. Fc1ccc2c(C3=CCN(Cc4nnc(C5CCC5)o4)CC3)c[nH]c2c1 read A: -12.94%; B: 30.36%; C: -3.584%. CNC(=O)[C@@H](c1ccccc1)N1CCC[C@H]1C(=O)NCc1ccccn1 read A: -35.81%; B: 22.22%; C: 6.095%.

For CC(C)[C@]1(O)CN(C(=O)CNC(N)=O)C[C@H]1C the result was A: -17.15%; B: 11.7%; C: 5.387%. Result for NC(=O)Nc1ccc(C(=O)NCCn2cccc2)cc1 was A: -3.474%; B: 9.783%; C: 1.574%. CO[C@@H]1CO[C@@]2(CCCN(S(=O)(=O)c3ccccc3)C2)C1 read A: -4.077%; B: 10.09%; C: -4.26%. With COc1ccccc1-n1nc(-c2ccco2)n(CC(=O)NC(C)C)c1=O the screen gave A: -19.43%; B: 9.836%; C: 8.874%.

CCn1cc(NC(=O)NCC(O)COc2ccccc2)cn1 (centres unmarked) gave A: -4.918%; B: 11.86%; C: 2.1%. For CC(C)c1nc(CN(C)C(=O)C2CC(=O)N(Cc3ccncc3)C2)cs1 (centres unmarked) the result was A: 18.71%; B: -1.639%; C: -6.867%. NC1CCN(C2CCN(c3ccc(-c4ccco4)cc3)CC2)CC1 read A: 6.784%; B: 54.76%; C: -0.4914%. CN(C)C(=O)C1CN(c2ccncn2)CCN(C2CCOCC2)C1 (centres unmarked) read A: -16.75%; B: 10%; C: 5.825%.

O=C(Cc1ccc(F)cc1)NCCNS(=O)(=O)C1CCCC1 gave A: -1.744%; B: 14.29%; C: -1.928%. NS(=O)(=O)c1cnn(CC(=O)Nc2c(Cl)cccc2Cl)c1 read A: -15.35%; B: 20.54%; C: -5.372%. CNS(=O)(=O)CCCNC(C)(C)c1nc(C)cs1 read A: -5.359%; B: 4.712%; C: 1.304%.

Some entries from above, unchanged:

compound,A,B,C
CNC(=O)[C@@H](c1ccccc1)N1CCC[C@H]1C(=O)NCc1ccccn1,-35.81%,22.22%,6.095%
NC1CCN(C2CCN(c3ccc(-c4ccco4)cc3)CC2)CC1,6.784%,54.76%,-0.4914%

Source: ChEMBL document CHEMBL3988442, “University of Dundee, Small-Polar-MMV Screening Library” (2021).